Results on 42 sequences are retold here after article PMC7819943, “Rice protein-binding microarrays: a tool to detect cis-acting elements near promoter regions in rice”.

The other results are listed elsewhere or left out.

This assay concerns the target T1, OsSMF1 (Oryza sativa, UniProt Q6ZLB0 1-436).
T1 sequence: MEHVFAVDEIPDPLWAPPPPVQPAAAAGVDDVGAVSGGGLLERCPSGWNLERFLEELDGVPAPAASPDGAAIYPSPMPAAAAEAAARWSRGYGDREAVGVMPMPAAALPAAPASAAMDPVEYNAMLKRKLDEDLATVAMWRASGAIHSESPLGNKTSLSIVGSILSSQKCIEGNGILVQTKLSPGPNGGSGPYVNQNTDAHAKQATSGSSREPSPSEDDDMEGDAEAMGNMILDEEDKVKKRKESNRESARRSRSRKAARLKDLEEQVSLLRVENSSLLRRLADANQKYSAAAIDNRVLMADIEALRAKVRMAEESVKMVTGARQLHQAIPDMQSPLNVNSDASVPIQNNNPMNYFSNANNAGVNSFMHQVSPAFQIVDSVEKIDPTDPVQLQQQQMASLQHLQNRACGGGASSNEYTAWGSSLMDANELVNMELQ
The assay is described as follows: protein-binding microarray (RPBM); PBS, 2% BSA, 51.3 ng/ul salmon testes DNA, 50 uM zinc acetate, 200 nM TF, 25 C, 1 h; high values mean tight binding. The conditions noted are these: protein: recombinant; tags: N-terminal polyhistidine and DsRed monomer fusion (pET32a); chain copies: 2; label: CyDye5-dUTP incorporated in the synthesized complementary strand; 3' TTTTT single-stranded linker to array surface; dsDNA, one strand shown. An outline of the steps: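 The binding signal for each feature is its fluorescence intensity in arbitrary units. An Axon 4000B scanner was used to read a custom Agilent array that had been made double-stranded with Cy5-dUTP primer extension, blocked with 2% BSA, incubated at 25 °C for 1 h with 200 nM protein in PBS, 2% BSA, salmon testes DNA and 50 µM zinc acetate, and washed. The protein was an N-terminal polyhistidine–DsRed transcription factor fusion from E. coli BL21-CodonPlus, purified on Ni–NTA.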
“AGGGCTGCCACCGCCAGACACATCACCTTCCCCATCGACCCGGAGTCACCTAGTGCAG”: the binding signal was 3880 fluorescence intensity (a.u.).

As to “GAGTGACGTCAGTGGACGGAGTGGTACATAACGAAGAAAACGGAGTCACCTAGTGCAG”, the binding signal was 17300 fluorescence intensity (a.u.).

For the sequence “AATCTGACTTCAAAGTTTACGATGGAAGGCGGAGGAAGTACGGAGTCACCTAGTGCAG”, the binding signal was 4090 fluorescence intensity (a.u.).

On to “CACCGTACCTCGCCATATCGTCAAGCAGCAGTGCTAACTACGGAGTCACCTAGTGCAG”, for which the binding signal was 3530 fluorescence intensity (a.u.).

For the sequence “GCTGCTCTGTAGCTGGCAGGCTAGGGTTTACGCTAGCTGACGGAGTCACCTAGTGCAG”, the binding signal is 3830 fluorescence intensity (a.u.).

Regarding “TTTTGGTCATTTTACCATATGACTTTGTTTTGGTAATTTGCGGAGTCACCTAGTGCAG”, the binding signal was 3210 fluorescence intensity (a.u.).

“ATCTGTGATTGAATGTATGAATCTGTGATGTGGTGACTGACGGAGTCACCTAGTGCAG”: the binding signal is 4250 fluorescence intensity (a.u.).

Consider “GGTCACTGTTGGAGAGGTACAGTGACTTTGACCTAGCTTTCGGAGTCACCTAGTGCAG”, for which the binding signal is 3610 fluorescence intensity (a.u.).

As to “ACGGCTTCCTTACGTGGCACACGTAAGCCGTTGCTTGCTTCGGAGTCACCTAGTGCAG”, the binding signal is 35100 fluorescence intensity (a.u.).

For the sequence “GGGAGAGAAGAGGGGAGAGAGAGGAGTTGACGTGGCCATGCGGAGTCACCTAGTGCAG”, the binding signal is 18800 fluorescence intensity (a.u.).

Regarding “TCAATTTCCATACACACGGCTCCGTGCTCGCGCTGCCTGCCGGAGTCACCTAGTGCAG”, the binding signal was 3700 fluorescence intensity (a.u.).

In the case of “TAAAGGGACTGTTCACTTTGATGTCATTTTCAACCTTACCCGGAGTCACCTAGTGCAG”, the binding signal is 3380 fluorescence intensity (a.u.).

Regarding “TTGGCTGCTGCGACGACGGAGGTGGAGGCTCTGTGCGTCACGGAGTCACCTAGTGCAG”, the binding signal is 3790 fluorescence intensity (a.u.).

Take “CACTCAGCTGAGCTGCTCAATACACACGCCAGCATGCTGCCGGAGTCACCTAGTGCAG”: the binding signal is 5020 fluorescence intensity (a.u.).

On to “AACGCTCCCAAGCTACCACGTGGCCTCCTACAAACTCTCACGGAGTCACCTAGTGCAG”, for which the binding signal is 3920 fluorescence intensity (a.u.).

For the sequence “GGCGGCCACGGGCTCCGGCGGAGGGCGGCGTGGTGGCGGCCGGAGTCACCTAGTGCAG”, the binding signal is 14400 fluorescence intensity (a.u.).

Take “AAGTTCACAGTGCTGACCACGGTCAAGGTGCCACGTCATCCGGAGTCACCTAGTGCAG”: the binding signal was 35200 fluorescence intensity (a.u.).

For “CTGCCGGTGGACGGCGGCGGAGAGCTGACTAGCCGAGCCGCGGAGTCACCTAGTGCAG”, the binding signal is 3520 fluorescence intensity (a.u.).

Take “CGGGGACGGGTGGAATTTTCAACCCGCGAGGAGTCGGGGTCGGAGTCACCTAGTGCAG”: the binding signal was 30500 fluorescence intensity (a.u.).

With “GAACTGTCACCCAGAGATCGTTGTTTGTCGGGTGAGGTGTCGGAGTCACCTAGTGCAG”, the binding signal was 3140 fluorescence intensity (a.u.).

With “TGGCGGCAGTTGGAGCTGGAGGAAGGGGATGACAGGTGGGCGGAGTCACCTAGTGCAG”, the binding signal was 3960 fluorescence intensity (a.u.).

On to “TCACAGGTGGTATAGTATTTCCAAGTGACATCAGTAGCCACGGAGTCACCTAGTGCAG”, for which the binding signal is 3190 fluorescence intensity (a.u.).

“TCTCTTTTGGCTGCCTGTCACGTGGGCCCCACCGTCACCGCGGAGTCACCTAGTGCAG”: the binding signal is 3660 fluorescence intensity (a.u.).

For “AGCCACACATATGTTGACATGCGGCATAATCATAGAGGTTCGGAGTCACCTAGTGCAG”, the binding signal is 3800 fluorescence intensity (a.u.).

In the case of “CTAAAACAGGCGAGTAGGATATACTACCTTCAATTATATTCGGAGTCACCTAGTGCAG”, the binding signal is 40600 fluorescence intensity (a.u.).

“GACGATGTCGGTGATCCAGCCAATAGCAGTGTAGCAACCACGGAGTCACCTAGTGCAG”: the binding signal is 3250 fluorescence intensity (a.u.).

For the sequence “AAAAGGAATTGGAGACATAGTAGTGAGATAGCACGTCACTCGGAGTCACCTAGTGCAG”, the binding signal is 4480 fluorescence intensity (a.u.).

As to “CCGGAGAGGTGGAGGTGGATCGGTGACCATCGTGGTTAGGCGGAGTCACCTAGTGCAG”, the binding signal is 3420 fluorescence intensity (a.u.).

Regarding “ATGTAATACCCGATGTGATACAGCAAAACTTTACCCTCAGCGGAGTCACCTAGTGCAG”, the binding signal was 3430 fluorescence intensity (a.u.).

“TTTGCCATGTCAATCTTCTGTTTTCACATAGCTTCACCGACGGAGTCACCTAGTGCAG”: the binding signal is 4460 fluorescence intensity (a.u.).

Turning to “ACCTAGATGACATCACTAATTCTAAACTTTAATCTCTATTCGGAGTCACCTAGTGCAG”, the binding signal is 4200 fluorescence intensity (a.u.).

For “GGCTCGATTCGCGACGGCGGAGGTCGATGCGTGGCGGCGGCGGAGTCACCTAGTGCAG”, the binding signal is 4470 fluorescence intensity (a.u.).

In the case of “TTTCTTAGATCGAATTGCCACGTCAATGACACGTTAGATGCGGAGTCACCTAGTGCAG”, the binding signal was 27900 fluorescence intensity (a.u.).

For the sequence “GGCTGGAGGTGTTCAGGGACAACGTGGCGTTCATCGAGTCCGGAGTCACCTAGTGCAG”, the binding signal is 5820 fluorescence intensity (a.u.).

Turning to “CTGATCAGTCATGATGCATTGTGGCTCTTTTCCATCCATTCGGAGTCACCTAGTGCAG”, the binding signal was 4200 fluorescence intensity (a.u.).

Take “AGAACCGAATTAATTTGGGGTTAAATAAATGACTAAGCAGCGGAGTCACCTAGTGCAG”: the binding signal is 3970 fluorescence intensity (a.u.).

As for “AATGTCATAGTACCAGCATTACGTGCAAGTGTGCAACATGCGGAGTCACCTAGTGCAG”, the binding signal is 3160 fluorescence intensity (a.u.).

As to “GGGGCGATGTCGTGCGCGATGGACGCGTCAGCGTCACCTCCGGAGTCACCTAGTGCAG”, the binding signal was 8420 fluorescence intensity (a.u.).

For the sequence “GTTTTGTCCTGATGCATGATGAACAGCCCATCATCAACGGCGGAGTCACCTAGTGCAG”, the binding signal is 3520 fluorescence intensity (a.u.).

Turning to “ACCGATGATCGGTCCATCCGTGCTTTTCGGTTCTAACACCCGGAGTCACCTAGTGCAG”, the binding signal is 3640 fluorescence intensity (a.u.).

Turning to “CGGAAAATCCCTCGAGCACATGTGAAACTTCCCCGTGATCCGGAGTCACCTAGTGCAG”, the binding signal is 3470 fluorescence intensity (a.u.).

In the case of “GTGCATGTCGCATTGTCATTAGCTGTCTTAGCTACTGATGCGGAGTCACCTAGTGCAG”, the binding signal is 3560 fluorescence intensity (a.u.).
